# Source: the supplement of paper PMC12067093, “Discovery and optimisation of a covalent ligand for TRIM25 and its application to targeted protein ubiquitination” (Chemical Science, 2025)
# Chains of the proteins cited; added tags and fusions are not shown. Lines headed by an entry give the natural chain unless they say otherwise; changes in a name come on top.
# UniProt Q14166: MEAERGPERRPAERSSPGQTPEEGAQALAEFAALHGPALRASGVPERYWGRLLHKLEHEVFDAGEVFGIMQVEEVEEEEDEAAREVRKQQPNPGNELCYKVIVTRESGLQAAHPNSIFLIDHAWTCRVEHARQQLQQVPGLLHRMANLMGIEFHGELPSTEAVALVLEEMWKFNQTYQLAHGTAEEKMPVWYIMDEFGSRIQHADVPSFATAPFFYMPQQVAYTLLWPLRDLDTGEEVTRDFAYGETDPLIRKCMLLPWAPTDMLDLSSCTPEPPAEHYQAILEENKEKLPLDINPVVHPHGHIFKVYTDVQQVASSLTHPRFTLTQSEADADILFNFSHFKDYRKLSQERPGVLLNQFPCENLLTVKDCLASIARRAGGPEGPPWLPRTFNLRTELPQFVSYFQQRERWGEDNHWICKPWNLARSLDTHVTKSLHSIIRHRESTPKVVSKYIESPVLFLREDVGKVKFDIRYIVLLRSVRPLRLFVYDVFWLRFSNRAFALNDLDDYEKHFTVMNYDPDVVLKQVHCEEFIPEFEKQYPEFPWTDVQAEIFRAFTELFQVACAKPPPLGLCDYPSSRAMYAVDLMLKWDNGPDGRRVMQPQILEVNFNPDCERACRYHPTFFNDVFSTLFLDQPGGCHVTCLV
# UniProt Q5TAX3: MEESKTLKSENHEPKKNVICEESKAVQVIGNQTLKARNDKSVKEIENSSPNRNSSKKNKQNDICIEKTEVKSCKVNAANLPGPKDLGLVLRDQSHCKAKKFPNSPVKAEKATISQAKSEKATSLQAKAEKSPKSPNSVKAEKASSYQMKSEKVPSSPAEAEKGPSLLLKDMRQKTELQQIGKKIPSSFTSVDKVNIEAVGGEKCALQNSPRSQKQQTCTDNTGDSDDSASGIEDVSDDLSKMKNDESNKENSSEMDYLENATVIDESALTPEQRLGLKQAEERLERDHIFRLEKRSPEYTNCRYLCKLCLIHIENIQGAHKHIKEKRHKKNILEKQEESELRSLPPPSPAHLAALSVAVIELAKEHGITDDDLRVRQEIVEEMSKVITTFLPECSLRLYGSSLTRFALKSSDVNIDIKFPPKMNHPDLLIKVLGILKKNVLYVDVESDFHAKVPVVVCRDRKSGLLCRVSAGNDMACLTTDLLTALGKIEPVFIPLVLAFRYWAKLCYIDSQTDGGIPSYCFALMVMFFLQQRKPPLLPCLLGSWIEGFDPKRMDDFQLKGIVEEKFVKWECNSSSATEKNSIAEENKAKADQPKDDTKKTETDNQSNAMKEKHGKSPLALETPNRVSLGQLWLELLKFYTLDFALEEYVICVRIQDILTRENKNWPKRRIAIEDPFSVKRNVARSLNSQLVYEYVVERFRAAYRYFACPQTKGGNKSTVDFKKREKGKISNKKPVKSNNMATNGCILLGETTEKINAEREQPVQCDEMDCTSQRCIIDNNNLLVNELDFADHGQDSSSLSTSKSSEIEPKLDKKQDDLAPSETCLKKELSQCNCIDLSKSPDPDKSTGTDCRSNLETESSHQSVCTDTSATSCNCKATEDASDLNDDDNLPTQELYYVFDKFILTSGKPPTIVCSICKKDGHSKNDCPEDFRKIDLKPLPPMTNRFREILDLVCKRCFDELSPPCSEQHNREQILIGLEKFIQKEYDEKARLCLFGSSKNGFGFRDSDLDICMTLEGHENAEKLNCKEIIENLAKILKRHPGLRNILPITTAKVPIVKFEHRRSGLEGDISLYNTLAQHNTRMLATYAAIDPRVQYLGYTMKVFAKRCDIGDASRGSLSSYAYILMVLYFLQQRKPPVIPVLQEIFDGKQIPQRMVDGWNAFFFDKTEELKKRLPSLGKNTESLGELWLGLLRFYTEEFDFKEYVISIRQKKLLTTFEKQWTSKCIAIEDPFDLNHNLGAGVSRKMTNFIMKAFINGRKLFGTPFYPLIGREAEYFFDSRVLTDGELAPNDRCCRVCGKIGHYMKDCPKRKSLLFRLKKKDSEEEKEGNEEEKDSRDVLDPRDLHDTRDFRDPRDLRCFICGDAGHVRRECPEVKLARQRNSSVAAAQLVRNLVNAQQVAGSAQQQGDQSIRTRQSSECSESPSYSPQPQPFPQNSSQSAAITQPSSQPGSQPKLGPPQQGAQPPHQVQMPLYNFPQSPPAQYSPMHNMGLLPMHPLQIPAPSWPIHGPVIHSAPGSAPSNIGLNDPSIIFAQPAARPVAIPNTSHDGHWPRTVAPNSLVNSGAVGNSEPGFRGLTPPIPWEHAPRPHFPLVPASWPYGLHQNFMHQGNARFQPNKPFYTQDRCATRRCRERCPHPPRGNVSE
# UniProt Q7Z6J9: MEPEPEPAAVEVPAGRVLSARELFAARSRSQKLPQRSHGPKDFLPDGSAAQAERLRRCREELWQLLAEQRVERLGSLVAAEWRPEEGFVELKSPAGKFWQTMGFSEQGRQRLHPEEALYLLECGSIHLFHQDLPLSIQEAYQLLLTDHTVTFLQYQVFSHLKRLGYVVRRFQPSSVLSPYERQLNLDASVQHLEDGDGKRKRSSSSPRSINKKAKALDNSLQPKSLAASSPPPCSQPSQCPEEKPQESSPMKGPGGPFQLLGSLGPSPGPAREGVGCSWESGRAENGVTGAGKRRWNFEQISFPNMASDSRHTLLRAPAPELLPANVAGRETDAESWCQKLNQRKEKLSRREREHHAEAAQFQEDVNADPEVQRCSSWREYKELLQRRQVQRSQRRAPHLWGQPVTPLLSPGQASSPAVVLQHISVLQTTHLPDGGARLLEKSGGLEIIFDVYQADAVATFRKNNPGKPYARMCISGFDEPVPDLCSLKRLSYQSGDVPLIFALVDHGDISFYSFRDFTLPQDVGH
# UniProt Q96QT4: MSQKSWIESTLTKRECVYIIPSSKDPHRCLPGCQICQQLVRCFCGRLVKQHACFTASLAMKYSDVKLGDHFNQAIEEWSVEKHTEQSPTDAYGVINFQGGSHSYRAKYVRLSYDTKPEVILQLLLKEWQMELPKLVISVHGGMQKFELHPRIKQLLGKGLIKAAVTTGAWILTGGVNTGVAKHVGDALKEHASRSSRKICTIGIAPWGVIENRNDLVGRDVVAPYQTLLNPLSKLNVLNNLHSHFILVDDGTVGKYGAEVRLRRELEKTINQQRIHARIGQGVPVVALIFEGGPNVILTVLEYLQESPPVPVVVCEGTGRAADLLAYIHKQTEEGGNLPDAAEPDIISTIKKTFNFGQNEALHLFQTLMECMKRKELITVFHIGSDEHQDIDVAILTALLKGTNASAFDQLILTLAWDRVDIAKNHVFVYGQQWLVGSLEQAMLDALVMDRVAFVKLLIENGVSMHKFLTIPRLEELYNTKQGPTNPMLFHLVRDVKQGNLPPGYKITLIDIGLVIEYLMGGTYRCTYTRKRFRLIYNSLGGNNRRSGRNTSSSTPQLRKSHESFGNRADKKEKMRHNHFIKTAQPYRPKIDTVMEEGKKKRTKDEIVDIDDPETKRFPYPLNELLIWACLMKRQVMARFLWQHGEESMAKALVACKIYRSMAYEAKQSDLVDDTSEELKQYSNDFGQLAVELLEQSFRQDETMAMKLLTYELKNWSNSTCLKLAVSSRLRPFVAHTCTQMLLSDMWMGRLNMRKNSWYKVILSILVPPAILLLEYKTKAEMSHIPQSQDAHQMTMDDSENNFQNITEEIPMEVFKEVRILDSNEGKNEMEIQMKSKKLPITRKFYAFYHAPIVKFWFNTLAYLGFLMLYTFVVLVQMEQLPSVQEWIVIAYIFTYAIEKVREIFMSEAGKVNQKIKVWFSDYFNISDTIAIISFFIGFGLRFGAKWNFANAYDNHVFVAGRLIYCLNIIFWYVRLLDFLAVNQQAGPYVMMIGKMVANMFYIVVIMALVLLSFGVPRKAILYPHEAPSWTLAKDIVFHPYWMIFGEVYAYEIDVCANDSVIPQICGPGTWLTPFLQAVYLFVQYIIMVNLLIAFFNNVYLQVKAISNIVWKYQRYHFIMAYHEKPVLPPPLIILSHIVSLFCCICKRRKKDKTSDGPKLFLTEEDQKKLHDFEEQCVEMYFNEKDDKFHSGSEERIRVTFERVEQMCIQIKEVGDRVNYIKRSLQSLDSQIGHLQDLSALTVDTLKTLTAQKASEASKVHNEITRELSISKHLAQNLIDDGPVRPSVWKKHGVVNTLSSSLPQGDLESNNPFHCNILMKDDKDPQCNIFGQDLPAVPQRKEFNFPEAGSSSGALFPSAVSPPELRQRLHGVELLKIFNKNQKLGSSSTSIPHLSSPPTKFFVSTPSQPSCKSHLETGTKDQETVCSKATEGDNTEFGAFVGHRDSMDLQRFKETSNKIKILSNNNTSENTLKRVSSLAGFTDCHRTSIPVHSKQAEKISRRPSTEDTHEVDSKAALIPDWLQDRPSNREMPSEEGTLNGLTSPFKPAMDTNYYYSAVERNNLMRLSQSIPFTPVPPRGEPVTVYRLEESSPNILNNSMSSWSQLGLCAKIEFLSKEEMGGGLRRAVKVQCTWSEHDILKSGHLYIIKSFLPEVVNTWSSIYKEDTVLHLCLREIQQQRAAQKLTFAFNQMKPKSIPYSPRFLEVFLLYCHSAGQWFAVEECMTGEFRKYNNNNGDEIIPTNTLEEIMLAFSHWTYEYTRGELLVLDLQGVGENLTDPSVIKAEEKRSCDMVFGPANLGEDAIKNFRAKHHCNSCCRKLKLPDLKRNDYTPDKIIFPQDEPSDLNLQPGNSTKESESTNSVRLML
# UniProt Q96N46: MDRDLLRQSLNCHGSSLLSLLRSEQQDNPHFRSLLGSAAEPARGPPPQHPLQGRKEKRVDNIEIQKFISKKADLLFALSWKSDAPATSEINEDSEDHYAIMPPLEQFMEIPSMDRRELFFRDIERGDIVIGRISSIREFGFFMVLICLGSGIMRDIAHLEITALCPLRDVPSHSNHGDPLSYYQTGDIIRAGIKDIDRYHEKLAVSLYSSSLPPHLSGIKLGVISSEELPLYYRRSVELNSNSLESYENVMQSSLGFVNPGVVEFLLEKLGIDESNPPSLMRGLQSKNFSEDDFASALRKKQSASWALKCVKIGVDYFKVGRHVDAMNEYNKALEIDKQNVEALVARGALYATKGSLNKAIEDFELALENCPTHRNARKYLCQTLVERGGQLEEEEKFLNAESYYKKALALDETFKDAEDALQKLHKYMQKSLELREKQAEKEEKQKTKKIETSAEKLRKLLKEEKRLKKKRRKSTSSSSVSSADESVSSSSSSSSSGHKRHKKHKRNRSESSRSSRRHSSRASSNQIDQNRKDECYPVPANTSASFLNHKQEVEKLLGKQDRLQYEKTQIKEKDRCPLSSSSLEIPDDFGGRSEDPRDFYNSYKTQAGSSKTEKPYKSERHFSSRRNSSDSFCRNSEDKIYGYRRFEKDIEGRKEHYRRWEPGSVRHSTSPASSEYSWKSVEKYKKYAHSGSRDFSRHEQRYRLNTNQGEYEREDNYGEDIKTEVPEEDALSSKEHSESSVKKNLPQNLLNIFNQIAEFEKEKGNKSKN
# UniProt Q2NL82: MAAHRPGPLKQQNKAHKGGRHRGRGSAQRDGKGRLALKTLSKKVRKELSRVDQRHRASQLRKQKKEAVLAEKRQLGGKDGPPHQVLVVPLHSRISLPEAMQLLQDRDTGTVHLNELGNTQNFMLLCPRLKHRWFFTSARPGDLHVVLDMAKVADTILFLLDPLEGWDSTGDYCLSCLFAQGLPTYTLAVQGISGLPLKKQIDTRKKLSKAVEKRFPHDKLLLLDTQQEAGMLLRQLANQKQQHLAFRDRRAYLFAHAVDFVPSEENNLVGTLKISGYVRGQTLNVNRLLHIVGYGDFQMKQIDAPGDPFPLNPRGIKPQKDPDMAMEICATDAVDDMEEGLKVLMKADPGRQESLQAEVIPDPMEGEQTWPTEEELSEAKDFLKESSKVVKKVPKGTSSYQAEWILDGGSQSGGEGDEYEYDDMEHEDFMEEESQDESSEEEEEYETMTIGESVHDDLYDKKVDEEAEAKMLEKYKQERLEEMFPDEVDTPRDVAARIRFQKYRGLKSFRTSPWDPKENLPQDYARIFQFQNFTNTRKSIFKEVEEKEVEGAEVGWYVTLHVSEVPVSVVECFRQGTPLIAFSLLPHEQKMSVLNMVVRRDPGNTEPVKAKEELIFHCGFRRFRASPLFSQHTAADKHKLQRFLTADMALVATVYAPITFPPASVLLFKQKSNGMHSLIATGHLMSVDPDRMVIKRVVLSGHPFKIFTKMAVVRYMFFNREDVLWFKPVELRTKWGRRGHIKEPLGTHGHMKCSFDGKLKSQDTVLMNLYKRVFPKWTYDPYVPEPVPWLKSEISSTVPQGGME
# UniProt Q96FX7: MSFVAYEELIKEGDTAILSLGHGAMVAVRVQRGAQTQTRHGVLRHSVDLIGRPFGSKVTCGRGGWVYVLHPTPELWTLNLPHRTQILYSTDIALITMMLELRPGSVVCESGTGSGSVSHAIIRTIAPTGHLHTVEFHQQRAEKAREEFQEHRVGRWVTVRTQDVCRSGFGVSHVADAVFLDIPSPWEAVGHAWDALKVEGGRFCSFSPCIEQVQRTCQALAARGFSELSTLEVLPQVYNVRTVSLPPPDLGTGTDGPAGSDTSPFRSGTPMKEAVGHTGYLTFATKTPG
# The other results are listed elsewhere or left out.
# Compound: CC1Cc2ccccc2N1C(=O)C1CCCN(C1)C(=O)CCl (mixture of isomers) [TRIM25 ligand 11 (diastereomer mixture)]
# Test: probe-labelled cysteine peptide fold change vs DMSO (competition) (log2 fold change); higher = less target engagement (more negative = stronger competition)
# Conditions: 10 µM; THP-1; incubation time: 4 h
# 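Note: competitive chemoproteomic profiling in live THP-1 cells with an iodoacetamide desthiobiotin (IA-DTB) probe, comparing probe-labelled peptide intensities in compound-treated cells against DMSO-treated controls.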
row,Target,probe-labelled cysteine peptide fold change
1,TRMT2A_Q8IZ69_260_CEFLVGVGVDGEDNTVGCR (UniProt Q8IZ69),0.14
2,TTLL12_Q14166_528_QVHCEEFIPEFEK (UniProt Q14166),-0.0439
3,TSPYL1_Q9H0U9_375_NQDLICSFFTWFSDHSLPESDK (UniProt Q9H0U9),0.789
4,TUBGCP4_Q9UGJ1_162_HSCGGLPPVR (UniProt Q9UGJ1),-0.0263
5,TSC2_P49815_519_LATQLLVDLAEGCHTHHFNSLLDIIEK (UniProt P49815),0.243
6,TTC21B_Q7Z4L5_914_EALVHCETDNK (UniProt Q7Z4L5),-0.0273
7,TRRAP_Q9Y4A5_852_TLELCVDNLQPDFLYDHIQPVR (UniProt Q9Y4A5),0.187
8,TROVE2_P10155_305_MTANSVLEPGNSEVSLVCEK (UniProt P10155),0.162
9,TUT4_Q5TAX3_458_VPVVVCR (UniProt Q5TAX3),-0.11
10,TRMU_O75648_109_FSCFFHYAVDNLGADAIATGHYAR (UniProt O75648),-0.0407
11,TSEN54_Q7Z6J9_338_ETDAESWCQK (UniProt Q7Z6J9),-0.028
12,TTF2_Q9UNY4_204_KQEEGAEIQCEAETGGTHKR (UniProt Q9UNY4),-0.121
13,TUBGCP6_Q96RT7_302_VGCPPGHREEPYLTEAGR (UniProt Q96RT7),0.0602
14,TTC37_Q6PGP7_329_EAVLSCSQALK (UniProt Q6PGP7),-0.103
15,TTC28_Q96AY4_794_ALGYHTQELEVYQELSDLPGECR (UniProt Q96AY4),0.126
16,TTC37_Q6PGP7_600_DFNCWESLGEAYLSR (UniProt Q6PGP7),0.0103
17,TRMT2A_Q8IZ69_225_ACCPLEGVRPSPQQTEYR (UniProt Q8IZ69),-0.191
18,TXLNG_Q9NUQ3_127_TDPPDGQQDSECNR (UniProt Q9NUQ3),-0.0613
19,TSC2_P49815_1587_DCQPDK (UniProt P49815),0.0403

row,Target,probe-labelled cysteine peptide fold change
1,TTC38_Q5R3I4_429_DVFNQLLIHAALNCTSSVHK (UniProt Q5R3I4),-0.0128
2,TRPM7_Q96QT4_53_QHACFTASLAMK (UniProt Q96QT4),0.107
3,TTC14_Q96N46_165_DIAHLEITALCPLR (UniProt Q96N46),0.0661
4,TUT4_Q5TAX3_994_LCLFGSSK (UniProt Q5TAX3),0.0568
5,TROVE2_P10155_520_GMLDMCGFDTGALDVIR (UniProt P10155),-0.0507
6,TRMT44_Q8IYL2_482_EVGFTCGFHVDEDCLR (UniProt Q8IYL2),0.315
7,TSR1_Q2NL82_618_EELIFHCGFR (UniProt Q2NL82),0.163
8,TXNDC17_Q9BRA2_69_HISEGCVFIYCQVGEK (UniProt Q9BRA2),0.072
9,TUBB6_Q9BUF5_12_EIVHIQAGQCGNQIGTK (UniProt Q9BUF5),-0.0689
10,TTI1_O43156_185+187_CLQVLLLQCDCQDHPR (UniProt O43156),-0.0713
11,TTC27_Q6P3X3_503_ETPSLYCLLGDVLGDHSCYDK (UniProt Q6P3X3),-0.0522
12,TRMT61A_Q96FX7_209_FCSFSPCIEQVQR (UniProt Q96FX7),-0.023
13,TTC37_Q6PGP7_715_ADVSCLWK (UniProt Q6PGP7),0.0501
14,TRRAP_Q9Y4A5_1376_IAALNALAACNYLPQSR (UniProt Q9Y4A5),-0.157
15,TTLL12_Q14166_126_ESGLQAAHPNSIFLIDHAWTCR (UniProt Q14166),-0.0534
16,TTF2_Q9UNY4_648_DDSCDFTSHGTLIICPASLIHHWK (UniProt Q9UNY4),0.127
17,TTF2_Q9UNY4_13_CPEHGTFCFLK (UniProt Q9UNY4),-0.00214
18,TSEN54_Q7Z6J9_277_EGVGCSWESGR (UniProt Q7Z6J9),-0.0393
19,TXN2_Q99757_90+93_VVNSETPVVVDFHAQWCGPCK (UniProt Q99757),-0.411

# Same assay, conditions: 50 µM; THP-1; incubation time: 4 h
row,Target,probe-labelled cysteine peptide fold change
1,TRMT2A_Q8IZ69_260_CEFLVGVGVDGEDNTVGCR (UniProt Q8IZ69),0.127
2,TTLL12_Q14166_528_QVHCEEFIPEFEK (UniProt Q14166),-0.061
3,TSPYL1_Q9H0U9_375_NQDLICSFFTWFSDHSLPESDK (UniProt Q9H0U9),0.39
4,TUBGCP4_Q9UGJ1_162_HSCGGLPPVR (UniProt Q9UGJ1),-0.0338
5,TSC2_P49815_519_LATQLLVDLAEGCHTHHFNSLLDIIEK (UniProt P49815),0.0595
6,TTC21B_Q7Z4L5_914_EALVHCETDNK (UniProt Q7Z4L5),-0.0167
7,TRRAP_Q9Y4A5_852_TLELCVDNLQPDFLYDHIQPVR (UniProt Q9Y4A5),-0.177
8,TROVE2_P10155_305_MTANSVLEPGNSEVSLVCEK (UniProt P10155),-0.201
9,TUT4_Q5TAX3_458_VPVVVCR (UniProt Q5TAX3),0.271
10,TRMU_O75648_109_FSCFFHYAVDNLGADAIATGHYAR (UniProt O75648),-0.233
11,TSEN54_Q7Z6J9_338_ETDAESWCQK (UniProt Q7Z6J9),-0.154
12,TTF2_Q9UNY4_204_KQEEGAEIQCEAETGGTHKR (UniProt Q9UNY4),-0.293
13,TUBGCP6_Q96RT7_302_VGCPPGHREEPYLTEAGR (UniProt Q96RT7),0.00573
14,TTC37_Q6PGP7_329_EAVLSCSQALK (UniProt Q6PGP7),-0.0728
15,TTC28_Q96AY4_794_ALGYHTQELEVYQELSDLPGECR (UniProt Q96AY4),-0.0624
16,TTC37_Q6PGP7_600_DFNCWESLGEAYLSR (UniProt Q6PGP7),-0.0643
17,TRMT2A_Q8IZ69_225_ACCPLEGVRPSPQQTEYR (UniProt Q8IZ69),-0.217
18,TXLNG_Q9NUQ3_127_TDPPDGQQDSECNR (UniProt Q9NUQ3),-0.203
19,TSC2_P49815_1587_DCQPDK (UniProt P49815),0.0682

row,Target,probe-labelled cysteine peptide fold change
1,TTC38_Q5R3I4_429_DVFNQLLIHAALNCTSSVHK (UniProt Q5R3I4),-0.087
2,TRPM7_Q96QT4_53_QHACFTASLAMK (UniProt Q96QT4),0.103
3,TTC14_Q96N46_165_DIAHLEITALCPLR (UniProt Q96N46),0.0914
4,TUT4_Q5TAX3_994_LCLFGSSK (UniProt Q5TAX3),-0.0335
5,TROVE2_P10155_520_GMLDMCGFDTGALDVIR (UniProt P10155),-0.174
6,TRMT44_Q8IYL2_482_EVGFTCGFHVDEDCLR (UniProt Q8IYL2),0.0306
7,TSR1_Q2NL82_618_EELIFHCGFR (UniProt Q2NL82),0.18
8,TXNDC17_Q9BRA2_69_HISEGCVFIYCQVGEK (UniProt Q9BRA2),-0.148
9,TUBB6_Q9BUF5_12_EIVHIQAGQCGNQIGTK (UniProt Q9BUF5),-0.0846
10,TTI1_O43156_185+187_CLQVLLLQCDCQDHPR (UniProt O43156),-0.00677
11,TTC27_Q6P3X3_503_ETPSLYCLLGDVLGDHSCYDK (UniProt Q6P3X3),-0.0196
12,TRMT61A_Q96FX7_209_FCSFSPCIEQVQR (UniProt Q96FX7),-0.323
13,TTC37_Q6PGP7_715_ADVSCLWK (UniProt Q6PGP7),0.0713
14,TRRAP_Q9Y4A5_1376_IAALNALAACNYLPQSR (UniProt Q9Y4A5),-0.0725
15,TTLL12_Q14166_126_ESGLQAAHPNSIFLIDHAWTCR (UniProt Q14166),0.0185
16,TTF2_Q9UNY4_648_DDSCDFTSHGTLIICPASLIHHWK (UniProt Q9UNY4),0.0472
17,TTF2_Q9UNY4_13_CPEHGTFCFLK (UniProt Q9UNY4),-0.00897
18,TSEN54_Q7Z6J9_277_EGVGCSWESGR (UniProt Q7Z6J9),-0.141
19,TXN2_Q99757_90+93_VVNSETPVVVDFHAQWCGPCK (UniProt Q99757),-1.31
